In PubChem BioAssay AID1671190 (National Center for Advancing Translational Sciences (NCATS), 2021):
The whole screen tested about 580,000 compounds, of which about 6,100 (1.1%) were called active. Inconclusive means that the source gave no clear call. Such entries were picked first, then a sample of the others. The call rests on the fitted dose curve; in most records, active means well fitted inhibition curve with a large enough effect; inconclusive means small, poorly fitted or top-dose-only effect, or another doubt; inactive means no such curve, though single readings can be large or run the other way. Potencies of inconclusive entries are doubtful fits and often do not repeat.

The chains behind the UniProt entries cited, without tags or fusion partners. Where a name states a change or a piece, a line headed by the entry shows the natural chain unless it says otherwise.
UniProt P18054: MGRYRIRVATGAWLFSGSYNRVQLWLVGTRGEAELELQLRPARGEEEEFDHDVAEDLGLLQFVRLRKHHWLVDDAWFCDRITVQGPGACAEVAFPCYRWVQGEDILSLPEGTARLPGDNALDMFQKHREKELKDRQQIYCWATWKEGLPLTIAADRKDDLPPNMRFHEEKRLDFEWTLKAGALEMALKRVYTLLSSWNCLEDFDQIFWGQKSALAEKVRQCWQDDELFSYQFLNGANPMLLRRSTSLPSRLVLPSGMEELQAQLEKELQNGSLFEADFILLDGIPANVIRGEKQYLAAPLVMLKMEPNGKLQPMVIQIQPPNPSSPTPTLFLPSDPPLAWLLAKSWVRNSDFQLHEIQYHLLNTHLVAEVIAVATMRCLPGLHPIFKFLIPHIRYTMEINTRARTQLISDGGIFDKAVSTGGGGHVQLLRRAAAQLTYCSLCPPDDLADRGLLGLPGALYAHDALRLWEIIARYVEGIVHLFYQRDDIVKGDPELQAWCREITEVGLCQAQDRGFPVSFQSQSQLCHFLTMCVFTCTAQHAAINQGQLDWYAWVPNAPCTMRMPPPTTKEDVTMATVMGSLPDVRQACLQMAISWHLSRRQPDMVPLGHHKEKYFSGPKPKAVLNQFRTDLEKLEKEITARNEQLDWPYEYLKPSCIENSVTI

What follows are compounds tested against Polyunsaturated fatty acid lipoxygenase ALOX12 (Homo sapiens) (UniProt P18054) (assay: Primary qHTS assay for inhibitors of human arachidonate 12S-lipoxygenase (ALOX12): Round 2). Conditions: purified 12hLO, xylenol orange hydroperoxide absorbance; series mostly up to 108 µM.
How it was run: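 Purified human 12hLO (150 nM final) in 25 mM Hepes, 0.01% Triton X-100, pH 7.0 was preincubated 15 min at room temperature with compound. Then 40 uM arachidonic acid was added, 30 min. Hydroperoxide was read by Fe-XO absorbance ratio 573/405 nm.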
Potency means the concentration at half of the fitted maximal effect.

SMILES	Potency
CCOC(=O)[C@]12CCC=C1N(Cc1ccccc1)C(=O)[C@H](CC(=O)NCc1ccc(OC)c(OC)c1)C2	inconclusive: 112 µM [inhibitor, single point]
Cc1ccc(/C(O)=C2\C(=O)C(=O)NC2c2ccc(F)cc2)cc1 (stereo not drawn)	inconclusive: 7.08 µM [inhibitor, full curve]
O=C(O)[C@]12CCCN[C@@H]1CCN(Cc1ccccc1OCCn1ccnc1)C2	inconclusive: 12.6 µM [inhibitor, full curve, poor fit]
O=c1[nH][nH]cc1C=Nc1cc(Cl)ccc1O	inactive
Cc1nnc(SCC(=O)NCCc2ccco2)c2nn(-c3ccccc3)c(C)c12	inactive
CCCCOc1ccc(-n2nc(C)cc2C)nn1	inactive
Cc1ccc(CNC(=O)CN2C(=O)NC3(CCCCC3)C2=O)cc1	inconclusive: 25.1 µM [inhibitor, full curve, poor fit]
CCCCN1CC(C(=O)Nc2ccc(C(=O)Nc3ccccc3F)cc2)CC1=O (stereo not drawn)	inactive
O=C(NNC(=O)c1cc(-c2ccco2)nc2ccccc12)c1ccccc1	inconclusive: 44.7 µM [inhibitor, partial curve, poor fit]
Cc1c(C(C)NC(=O)c2ccc(=O)[nH]c2)cnn1-c1cccc2ccccc12 (stereo not drawn)	inactive
Cc1cc(I)c2[nH]c(-c3ccccc3)c(-c3ccccc3)c2c1	inconclusive: 44.7 µM [inhibitor, partial curve, poor fit]
O=C(NNC(=O)c1ccc(S(=O)(=O)N2CCOCC2)cc1)c1ccccc1	inconclusive: 100 µM [inhibitor, partial curve, poor fit]
CCOC(=O)C1CCN(C(=O)C2COC3(CCCCC3)N2C(=O)c2cc(F)cc(F)c2)CC1 (stereo not drawn)	inconclusive: 25.1 µM [inhibitor, partial curve, poor fit]
COc1cccc(C(=O)Nc2ccc(NC(=O)c3ccco3)c(Cl)c2)c1	inactive
CCNc1cc(NC2CCC(O)CC2)nc(Nc2ccc3c(ccn3Cc3ccccc3)c2)n1 (stereo not drawn)	inconclusive: 6.11 µM [inhibitor, partial curve, poor fit]
CCOc1ccccc1C(=O)Nc1c(C(=O)N2CCN(Cc3ccccc3)CC2)oc2ccccc12	inactive
COc1ccc(S(=O)(=O)N2CCN(c3ncccn3)CC2)cc1OC	active: 35.5 µM
CCc1cccc(C)c1-n1nnnc1C1(Nc2ccc3c(c2)OCCO3)CCCC1	inactive
CCn1c(SCC(=O)Nc2nnc(C)s2)nc2c(c1=O)SC(C)C2 (stereo not drawn)	inactive
CCc1cc(C(c2ccc(F)cc2)N2CCOCC2)c(NC(=O)c2ccccc2)s1 (stereo not drawn)	inconclusive: 2.51 µM [inhibitor, full curve, poor fit]
COc1ccc(CCn2c(=N)c(C(=O)N3CCN(C)CC3)cc3c(=O)n4ccccc4nc32)cc1	inactive
O=C(Nc1ccc(N2CCCC2)cc1)C(c1ccccc1)c1ccccc1	inconclusive: 56.2 µM [inhibitor, partial curve, poor fit]

Of the compounds above, these have an aryl thioether with sulfur outside any ring.
SMILES	Potency
Cc1nnc(SCC(=O)NCCc2ccco2)c2nn(-c3ccccc3)c(C)c12	inactive
CCn1c(SCC(=O)Nc2nnc(C)s2)nc2c(c1=O)SC(C)C2 (stereo not drawn)	inactive

Going on with the list.

SMILES	Potency
CCCCc1cc(=O)oc2c3c(cc(OCC(=O)NCCCO)c12)OC(C)(C)CC3	inconclusive: 35.5 µM [inhibitor, single point]
Cc1ccc(OCC(=O)c2ccc3c(c2)N(CC(=O)NC2CCCCC2)C(=O)CO3)c(Cl)c1	inconclusive: 100 µM [inhibitor, single point]
Cc1cccn2c(=O)c3cc(C(=O)NCC4CCCO4)c(=N)n(CC4CCCO4)c3nc12 (stereo not drawn)	inconclusive: 50.1 µM [inhibitor, partial curve, poor fit]
COc1coc(C(O)CN)cc1=O (stereo not drawn)	inactive
Cc1ccc(NC(=O)CSc2ncc(-c3ccc(F)cc3)o2)c(C)c1	inconclusive: 100 µM [inhibitor, single point]
CN1C(=O)Cc2cc(-c3csc(NC4CCCC4)n3)ccc21	inconclusive: 20 µM [inhibitor, partial curve, poor fit]
COc1cccc2oc3cc(C#Cc4ccccn4)ccc3c(=O)c12	inconclusive: 0.631 µM [inhibitor, full curve, poor fit]
O=C(Nc1ccc(C(F)(F)F)cc1)c1cc(N2C(=O)CCS2(=O)=O)ccc1Cl	inconclusive: 44.7 µM [inhibitor, partial curve, poor fit]
CCOc1ccc(NC(=O)CCCCn2c(=O)[nH]c3ccsc3c2=O)cc1	inactive
CCn1c(SCC(=O)Nc2ccccc2C)nc2nc3c(cc2c1=O)COC(C)(C)C3	inconclusive: 0.316 µM [inhibitor, full curve, poor fit]
Cn1nc(C(=O)OCC(=O)c2ccc(OC(F)F)cc2)c2ccccc2c1=O	inconclusive: 112 µM [inhibitor, single point]
CCNC(=O)c1cc(-c2ccccc2)nc2ccccc12	inactive
O=C(NCCC1CCCCN1S(=O)(=O)c1ccc(Cl)cc1)C(=O)NCc1cccnc1 (stereo not drawn)	inconclusive: 158 µM [inhibitor, partial curve, poor fit]
Cc1ccc(-c2nnc(SCC(=O)N3c4ccccc4NC(=O)C3(C)C)n2N)cc1	inconclusive: 7.08 µM [inhibitor, partial curve, poor fit]
NC(=O)C1CN(C(=O)c2nn(-c3ccccc3)c(=O)c3ccccc23)c2ccccc2O1 (stereo not drawn)	inconclusive: 44.7 µM [inhibitor, partial curve, poor fit]
O=C(O)C1=NOC2CN([S+](=O)([O-])C3CCCC3)CC12 (stereo not drawn)	inconclusive: 56.2 µM [inhibitor, partial curve, poor fit]
COc1ccc(C=O)cc1I	inconclusive: 141 µM [inhibitor, partial curve, poor fit]
CCCNC(=O)CSc1ccc(S(=O)(=O)N2CCCC2)cn1	inconclusive: 20 µM [inhibitor, partial curve, poor fit]
CCN1/C(=C\c2ccc3ccccc3[n+]2CC)Sc2cc(C)ccc21	active: 35.5 µM
NS(=O)(=O)c1ccc(N=Cc2c(O)n(-c3nccs3)c(=O)c3ccccc23)cc1	inactive
Cc1ccccc1-n1nc2c(c1NC(=O)C(C)(C)C)CS(=O)(=O)C2	inactive
